Over roughly 33,000 sequences, “E-score (-0.5 to 0.5)” has its median near -8e-05; the highest 2% begin near 0.23. This is one part of the list.
Target: T1, Nrg2 (UniProt P38082)
T1 sequence: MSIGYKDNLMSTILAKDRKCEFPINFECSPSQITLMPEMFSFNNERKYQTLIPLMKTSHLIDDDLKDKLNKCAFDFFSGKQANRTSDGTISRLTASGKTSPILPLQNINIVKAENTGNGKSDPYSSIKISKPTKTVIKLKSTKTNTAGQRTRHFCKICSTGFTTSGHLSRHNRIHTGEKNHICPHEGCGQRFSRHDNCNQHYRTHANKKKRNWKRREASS
Assay: PBM E-score (8-mer binding enrichment) (E-score (-0.5 to 0.5)); higher = stronger / more preferred TF binding
Details: protein concentration: 100 nM; construct: GST-full length
Procedure, shortened: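 Each ungapped eight-base word and its reverse complement, pooled, received an E-score from the Universal PBM Analysis Suite. Underlying scans, normalised with masliner, recorded fluorescent anti-GST bound to GST-tagged yeast transcription factors. These were applied at about 100-200 nM to universal all-10-mer Agilent arrays double-stranded by primer extension.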

First: CATCAGGA
Second: AGCCGCTA
The “PBM E-score” value of the first is higher: 0.0652 for the first, -0.159 for the second.

Compared with CGCATGAC, TCGTGCAA is higher in “PBM E-score” value: 0.01 for the first, 0.0945 for the second.

Going from AAGTTGAT to GAGGGTGC, the “PBM E-score” value falls from 0.0287 to -0.274.

Compared with CCGGCTTC, CATAATCA is higher in “PBM E-score” value: 0.0769 for the first, 0.185 for the second.

Compared with AGTGTCTG, ACTGATGC is lower in “PBM E-score” value: 0.0987 for the first, -0.0236 for the second.

First: CCTCTCTC
Second: ACTTATTC
The “PBM E-score” value of the first is lower: -0.232 for the first, 0.109 for the second.

Compared with ACCCGGTC, AAGCTTCG is higher in “PBM E-score” value: -0.147 for the first, -0.109 for the second.

Compared with CGTGCGAC, TAGGACCA is higher in “PBM E-score” value: -0.161 for the first, -0.0435 for the second.

Going from CATCCAAA to ATTATATG, the “PBM E-score” value rises from -0.00312 to 0.132.

Going from AGTGGCAG to CACTTCGG, the “PBM E-score” value rises from -0.0855 to 0.101.

Compared with GGTTCTCA, CCCCGTAG is lower in “PBM E-score” value: 0.0672 for the first, -0.0478 for the second.

Compared with CTCAATGA, AGCAAAGC is lower in “PBM E-score” value: 0.104 for the first, -0.07 for the second.

Going from TAACATTA to TGCGAAAA, the “PBM E-score” value rises from 0.0456 to 0.115.

First: CCTCACGA
Second: GTCCGGGA
The “PBM E-score” value of the first is lower: -0.111 for the first, 0.106 for the second.

Going from ATAATTCC to CCAATATC, the “PBM E-score” value rises from 0.0468 to 0.103.

First: ATCTCACA
Second: ACCTACCC
The “PBM E-score” value of the first is higher: -0.0306 for the first, -0.0864 for the second.

Compared with AAGAGAGG, GAAAAGTC is lower in “PBM E-score” value: -0.015 for the first, -0.0781 for the second.

Going from AGAATGCT to AAATGTTG, the “PBM E-score” value falls from 0.108 to -0.25.

Going from TACATGGA to CCAGCCAC, the “PBM E-score” value falls from 0.0188 to -0.0358.

Compared with CCCCGTAA, GAGCCTAC is lower in “PBM E-score” value: 0.0183 for the first, -0.161 for the second.

First: ATGAAACG
Second: ATTATTGA
The “PBM E-score” value of the first is higher: 0.135 for the first, 0.00926 for the second.

Compared with AGGGTTGC, CAAGCGCC is lower in “PBM E-score” value: 0.0768 for the first, -0.196 for the second.

Compared with CACAGGAC, AGTAGTTC is higher in “PBM E-score” value: 0.104 for the first, 0.207 for the second.

Compared with ACCTAGAG, GTCGGGCA is higher in “PBM E-score” value: -0.207 for the first, -0.175 for the second.

Going from AAATCGAT to ACTTTAGG, the “PBM E-score” value falls from 0.152 to -0.198.

First: CTTTGCAA
Second: GGCGCTAA
The “PBM E-score” value of the first is higher: 0.036 for the first, -0.0159 for the second.

Going from CCTCTCAG to GACTCCGC, the “PBM E-score” value falls from -0.0635 to -0.167.

Going from AGACGTTG to ACCCGTTG, the “PBM E-score” value falls from 0.0906 to -0.0284.

Compared with ACCGGAAC, CGGTCAAC is lower in “PBM E-score” value: 0.107 for the first, -0.0206 for the second.

Going from GACAACCA to CAACTGAG, the “PBM E-score” value rises from 0.122 to 0.139.

First: ACTTCAGA
Second: TAGCGCCA
The “PBM E-score” value of the first is higher: -0.0595 for the first, -0.0778 for the second.

Going from TAGGGATA to GAAGCCGA, the “PBM E-score” value falls from 0.134 to 0.0509.

Compared with AGACGCCG, GGCATCGA is lower in “PBM E-score” value: 0.0759 for the first, -0.146 for the second.

Going from CGGCCCAC to AATACACA, the “PBM E-score” value rises from -0.228 to 0.0795.

Going from CCCTCCGC to ATGTGGAA, the “PBM E-score” value rises from -0.145 to 0.117.

First: GGAATAAC
Second: CTGGTTAA
The “PBM E-score” value of the first is higher: 0.132 for the first, -0.00464 for the second.

Compared with CCTCTTAG, CTCGTACA is lower in “PBM E-score” value: 0.139 for the first, 0.0795 for the second.

Compared with TAGTTTGA, TATTCACA is higher in “PBM E-score” value: 0.0895 for the first, 0.155 for the second.

Going from CGGGAATC to GCTGGGCC, the “PBM E-score” value falls from 0.104 to -0.212.

Compared with CACTCGCG, GAGAAACC is lower in “PBM E-score” value: 0.0216 for the first, -0.0126 for the second.

Going from CTATCCCA to ACCTATGG, the “PBM E-score” value rises from -0.0914 to 0.0508.

First: AGTAATTA
Second: CCTCCTTA
The “PBM E-score” value of the first is higher: 0.208 for the first, -0.372 for the second.

First: AGACGAGG
Second: TAAACGTA
The “PBM E-score” value of the first is lower: -0.0855 for the first, 0.0621 for the second.

Compared with AACTCTTC, ATCGCGTA is higher in “PBM E-score” value: -0.106 for the first, 0.0399 for the second.

First: ATAACGCC
Second: ACTGTTCG
The “PBM E-score” value of the first is higher: 0.0631 for the first, -0.0364 for the second.

First: ACGTGTGA
Second: AACCGGTG
The “PBM E-score” value of the first is lower: -0.126 for the first, -0.0857 for the second.

Compared with GTCGATTA, TCACGTAA is lower in “PBM E-score” value: 0.073 for the first, -0.164 for the second.

Going from CGGCCAAA to CACCGCTA, the “PBM E-score” value rises from -0.075 to -0.0122.

Compared with ATTGTTAA, CTGTTAAG is lower in “PBM E-score” value: 0.0152 for the first, -0.146 for the second.

First: AACTGTGT
Second: GCTTGACA
The “PBM E-score” value of the first is higher: 0.159 for the first, -0.0904 for the second.

Going from AGCAAGCA to GACGCTGA, the “PBM E-score” value rises from -0.0877 to -0.0859.

Going from ACGGCCAT to GCCCCCGC, the “PBM E-score” value falls from -0.152 to -0.181.

First: GGTTACCA
Second: CGAGCAAC
The “PBM E-score” value of the first is lower: -0.00207 for the first, 0.0789 for the second.

Going from TCCATGAA to GTAGCGGA, the “PBM E-score” value rises from 0.0917 to 0.101.

First: ATTGGCAA
Second: CTGGTCGC
The “PBM E-score” value of the first is higher: 0.18 for the first, -0.00893 for the second.

Compared with CGTCGGGA, ATTTCCCG is higher in “PBM E-score” value: 0.00615 for the first, 0.264 for the second.

First: ACGCGGAT
Second: AAAGCGCT
The “PBM E-score” value of the first is lower: 0.0594 for the first, 0.217 for the second.

Going from ATCACGCA to TAGAGGAA, the “PBM E-score” value falls from -0.0888 to -0.126.

Compared with AGAGTGTA, AAAGGTCT is lower in “PBM E-score” value: -0.123 for the first, -0.161 for the second.

Going from ATAGAACA to CCTGTTAA, the “PBM E-score” value falls from 0.0998 to 0.0833.

Going from AGCGGCAG to CCAATCAG, the “PBM E-score” value rises from -0.121 to -0.0574.

Compared with CGTCACTA, ATGTACTA is lower in “PBM E-score” value: 0.165 for the first, 0.155 for the second.

First: ACTAAGGC
Second: ACCTTTAG
The “PBM E-score” value of the first is higher: -0.0854 for the first, -0.115 for the second.

Going from CCGTGTTA to GACAACTC, the “PBM E-score” value rises from -0.0728 to 0.0611.

Compared with CCATGGTC, ACCCCCTC is lower in “PBM E-score” value: -0.0857 for the first, -0.327 for the second.

Compared with ATGCAGAG, ATGGCGAA is higher in “PBM E-score” value: -0.127 for the first, 0.206 for the second.

Compared with GGCTGAGA, CGTCCTCA is lower in “PBM E-score” value: -0.0527 for the first, -0.109 for the second.

Compared with AAAAACAA, GTACCGAA is lower in “PBM E-score” value: 0.149 for the first, -0.087 for the second.

Going from ACCGTACC to ACGAATTC, the “PBM E-score” value rises from -0.0813 to 0.0229.

Going from CGCACCAA to GGGATCGA, the “PBM E-score” value falls from 0.00802 to -0.00212.

Going from CTGGGAGA to CAGCCCCC, the “PBM E-score” value falls from 0.0489 to -0.351.

Compared with AGCTGGGG, CCCCCGGC is lower in “PBM E-score” value: -0.114 for the first, -0.34 for the second.

First: GATCCCGA
Second: ATATGGAG
The “PBM E-score” value of the first is lower: 0.0706 for the first, 0.147 for the second.

Going from AGGTCCCG to GTAAGGCA, the “PBM E-score” value falls from 0.066 to -0.0496.

Going from GTCCATCA to CACGGCTG, the “PBM E-score” value falls from -0.0118 to -0.129.

First: AGTCAATG
Second: CTAAATAG
The “PBM E-score” value of the first is lower: -0.0552 for the first, 0.0318 for the second.

Compared with GATCGGGA, CCTGTGTC is higher in “PBM E-score” value: -0.213 for the first, -0.0504 for the second.

Going from AGGGGAAG to CGTAGTAC, the “PBM E-score” value rises from -0.114 to -0.0916.

First: AGACACTG
Second: ATCAGCGC
The “PBM E-score” value of the first is higher: 0.0572 for the first, 0.0517 for the second.

First: GCCTCCGA
Second: CCGCTCAA
The “PBM E-score” value of the first is lower: -0.211 for the first, 0.0189 for the second.

Going from CTGCATCA to CCTACTTC, the “PBM E-score” value falls from 0.0772 to 0.00141.

Compared with AAAGGGGT, AACAACGG is lower in “PBM E-score” value: 0.16 for the first, 0.0609 for the second.

Going from ATATACAC to CATCGCGA, the “PBM E-score” value rises from 0.081 to 0.127.

Going from CGGCACCC to CCGGTCAA, the “PBM E-score” value rises from -0.0943 to -0.0451.

First: CAAGACTC
Second: AGCTCAAA
The “PBM E-score” value of the first is lower: -0.0308 for the first, 0.0621 for the second.

Going from ATAAGGCG to GGAGGAAC, the “PBM E-score” value falls from 0.0285 to -0.218.

Reference: the supplement of paper PMC3334620
